PubChem BioAssay AID1259254 – NCATS, 2017
Here is an unselected part of about 59,000 deposited reagents. In the full data, about 1,550 (2.6%) got an active call. 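G2 share is only a proxy for re-replication; each gene was hit by three separate siRNAs, and active genes were retested.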 The numbers tell different reagents against one gene apart. Not all columns of the deposit are shown. Reagent sequences are not shown. Not given: the amount of reagent.

Test: 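Genome-wide screen for genes that prevent DNA re-replication in cancer cells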 (primary screen)
Cell system: human HCT116 colorectal cancer cells
Reagents: single siRNA against human genes
Timing: 3 days
Read-out: 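Imaged Hoechst DNA stain sorts each cell into a cycle phase by DNA amount; per plate, G2 fraction set to 0% for non-targeting and 100% for GMNN siRNA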
Direction: G2 robust z-score and G2 cells, % of GMNN control: higher = more G2 cells, more excess DNA replication
Active means: 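An siRNA counts as active if its G2 robust z-score lies at least 5 MADs above the screen median; here such calls match roughly 38% of GMNN control or more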

no.	gene knocked down	siRNA no.	G2 robust z-score	G2 cells, % of GMNN control	outcome
1	GPATCH4	1	1.82	15.8	inactive
2	GPATCH4	2	0.823	8.76	inactive
3	GPATCH4	3	0.642	7.49	inactive
4	MSRB3	1	-0.363	0.412	inactive
5	MSRB3	2	0.785	8.49	inactive
6	MSRB3	3	1.39	12.8	inactive
7	CD44	1	-1.35	-6.51	inactive
8	CD44	2	-0.527	-0.737	inactive
9	CD44	3	-0.183	1.68	inactive
10	CHMP1A	1	0.704	7.92	inactive
11	CHMP1A	2	-0.829	-2.86	inactive
12	CHMP1A	3	-0.619	-1.39	inactive
13	KIF7	1	1.11	10.8	inactive
14	KIF7	2	2.37	19.6	inactive
15	KIF7	3	3.16	25.2	inactive
16	HSPB6	1	-0.512	-0.638	inactive
17	HSPB6	2	1.88	16.2	inactive
18	HSPB6	3	-0.605	-1.29	inactive
19	CFAP46	1	0.451	6.14	inactive
20	CFAP46	2	-0.277	1.02	inactive
21	CFAP46	3	1.58	14.1	inactive
22	CFAP46	4	-0.435	-0.091	inactive
23	CFAP46	5	2.37	19.6	inactive
24	CFAP46	6	4.67	35.8	inactive
25	ATP6V1C2	1	1.05	10.4	inactive
26	ATP6V1C2	2	0.0311	3.19	inactive
27	ATP6V1C2	3	1.95	16.7	inactive
28	ZDBF2	1	-0.746	-2.28	inactive
29	ZDBF2	2	-0.269	1.07	inactive
30	ZDBF2	3	-1.13	-5.01	inactive
31	CRH	1	-0.941	-3.66	inactive
32	CRH	2	0.259	4.79	inactive
33	CRH	3	7.04	52.5	active
34	OR2F1	1	-0.386	0.255	inactive
35	OR2F1	2	-0.548	-0.89	inactive
36	OR2F1	3	-0.821	-2.81	inactive
37	DUSP14	1	0.0553	3.36	inactive
38	DUSP14	2	-0.354	0.479	inactive
39	DUSP14	3	0.32	5.22	inactive
40	SPATA7	1	-0.172	1.76	inactive
41	SPATA7	2	-0.807	-2.71	inactive
42	SPATA7	3	-0.804	-2.69	inactive
43	LRG1	1	0.303	5.1	inactive
44	LRG1	2	-0.377	0.316	inactive
45	LRG1	3	-0.206	1.52	inactive
46	METAP2	1	2.31	19.2	inactive
47	METAP2	2	0.0702	3.46	inactive
48	METAP2	3	-0.61	-1.33	inactive
49	LZTS1	1	-0.158	1.86	inactive
50	LZTS1	2	2.59	21.2	inactive
51	LZTS1	3	-0.422	-0.00273	inactive
52	LEMD1	1	7.86	58.3	active
53	LEMD1	2	1.55	13.9	inactive
54	LEMD1	3	0.141	3.96	inactive
55	AKR1B1	1	0.363	5.52	inactive
56	AKR1B1	2	1.42	13	inactive
57	AKR1B1	3	1.05	10.4	inactive
58	CDH20	1	0.426	5.97	inactive
59	CDH20	2	-0.202	1.54	inactive
60	CDH20	3	-0.681	-1.82	inactive
61	SEMG2	1	-0.388	0.237	inactive
62	SEMG2	2	-0.307	0.807	inactive
63	SEMG2	3	-0.709	-2.02	inactive
64	DNAH2	1	-0.356	0.464	inactive
65	DNAH2	2	-0.824	-2.83	inactive
66	DNAH2	3	-0.559	-0.966	inactive
67	FAM90A27P	1	0.322	5.23	inactive
68	FAM90A27P	2	-0.586	-1.16	inactive
69	FAM90A27P	3	-0.431	-0.0635	inactive

Targets above whose gene name starts with F or f:
gene knocked down	siRNA no.	G2 robust z-score	G2 cells, % of GMNN control	outcome
FAM90A27P	1	0.322	5.23	inactive
FAM90A27P	2	-0.586	-1.16	inactive
FAM90A27P	3	-0.431	-0.0635	inactive
